Measurements published in US7192722B2, “Phenethanolamine-derived haptens, immunogens, antibodies and conjugates” (Randox Laboratories, priority 2004, dated 2007).

Columns and labels:
[1] = tested on: IgG fraction of the antiserum raised to immunogen A (hapten A-BSA); experiment: Competitive ELISA for ractopamine, Example 22 a): antiserum to immunogen A, conjugate A (hapten A-HRP); assay type: binding, sheep
Protocol: (§1) An aqueous solution of each immunogen was formulated with Freund's Complete Adjuvant (FCA) to form an emulsion consisting of 2 mg/ml immunogen in 50% (v/v) FCA. Three sheep were immunised with this emulsion (1° immunisation), 0.25 ml being subcutaneously injected at each of four sites in the flank of each animal. Subsequent immunizations (boosts) contained 1 mg/ml immunogen. All boosts were emulsified in 50% (v/v) Freund's Incomplete Adjuvant (FIA) and were administered in the same manner as the 1° immunisation, at monthly intervals for 1 year. Blood sampling took place 7 to 14 days after each boost. Each sample was processed to produce antiserum, which was further purified by caprylic acid and ammonium sulfate precipitation to yield an immunoglobulin G (IgG) fraction.
The appropriate antibody coating dilution was determined using standard ELISA checkerboard techniques. The plate was incubated for 2 hours at 37° C., washed 4 times with Tris buffered saline containing Tween 20 (TBST) and tapped dry. Standard solutions of ractopamine were prepared in TBST at 0, 0.05, 0.1, 0.5, 1, and 5 ng/ml, and 50 μl of each was added to the appropriate wells. […] The appropriate dilution of conjugate was also determined using standard ELISA checkerboard techniques. The plate was incubated at 37° C. for 2 hours. Excess unbound conjugate was removed by washing 6 times over a 10 minute period with TBST. 125 μl of tetramethylbenzidine (TMB) substrate solution was added to each well of the plate that was then incubated for 15 to 20 minutes in the dark at room temperature. The reaction was terminated by addition of 125 μl 0.2M H2SO4 to each well. The absorbance was then measured at 450 nm using a microtiter plate reader.
(§2) Employing each series of standards in the ractopamine competitive ELISAs, calibration curves were generated and these were used to determine the cross-reactivity of each immunoassay with these substances.

[2] = tested on: IgG fraction of the antiserum raised to immunogen C (hapten C-BSA); experiment: Competitive ELISA for ractopamine, Example 22 b): antiserum to immunogen C, conjugate C (hapten C-HRP); assay type: binding, sheep
Protocol: as §1
The same definitions apply for A450, B, B0 and IC50.
as §2

[3] = tested on: IgG fraction of the antiserum raised to immunogen D (hapten D-BSA); experiment: Competitive ELISA for isoxsuprine, Example 24: antiserum to immunogen D, conjugate D (hapten D-HRP); assay type: binding
[4] = tested on: IgG fraction of the antiserum raised to immunogen E (hapten E-BSA); experiment: Competitive ELISA for ritodrine, Example 25: antiserum to immunogen E, conjugate E (hapten E-HRP); assay type: binding

In the case of `CC(CCc1ccc(O)cc1)NCC(O)c1ccc(O)cc1` (stereo not drawn) [Ractopamine], the A450 ([1]; ractopamine 0.05 ng/ml) is reported as 1.276, the A450 ([1]; ractopamine 0.1 ng/ml) is reported as 1.181 and the A450 ([1]; ractopamine 0.5 ng/ml) is reported as 0.566. It also gave an A450 ([1]; ractopamine 1 ng/ml) of 0.404, an A450 ([1]; ractopamine 5 ng/ml) of 0.151 and an A450 ([2]; ractopamine 0.025 ng/ml) of 1.683. It also gave an A450 ([2]; ractopamine 0.1 ng/ml) of 1.302, an A450 ([2]; ractopamine 0.25 ng/ml) of 0.918 and an A450 ([2]; ractopamine 0.5 ng/ml) of 0.68. It also gave an A450 ([2]; ractopamine 1 ng/ml) of 0.469.
In the case of `CC(COc1ccccc1)NC(C)C(O)c1ccc(O)cc1` (stereo not drawn) [Isoxsuprine], the A450 ([3]; isoxsuprine 0.5 ng/ml) is reported as 0.743, the A450 ([3]; isoxsuprine 1 ng/ml) is reported as 0.399 and the A450 ([3]; isoxsuprine 5 ng/ml) is reported as 0.158. It also gave an A450 ([3]; isoxsuprine 10 ng/ml) of 0.115, an A450 ([3]; isoxsuprine 50 ng/ml) of 0.036 and an A450 ([3]; isoxsuprine 100 ng/ml) of 0.032. For the same molecule, the A450 ([3]; isoxsuprine 200 ng/ml) was 0.022.
In the case of `CC(NCCc1ccc(O)cc1)C(O)c1ccc(O)cc1` (stereo not drawn) [Ritodrine], the A450 ([4]; ritodrine 1 ng/ml) is reported as 1.791, the A450 ([4]; ritodrine 5 ng/ml) is reported as 1.602 and the A450 ([4]; ritodrine 10 ng/ml) is reported as 1.562. It also gave an A450 ([4]; ritodrine 50 ng/ml) of 1.260, an A450 ([4]; ritodrine 100 ng/ml) of 1.088 and an A450 ([4]; ritodrine 500 ng/ml) of 0.584. The A450 ([4]; ritodrine 1000 ng/ml) was 0.440.
